Laboratory results: PubChem BioAssay AID743454 (Peter MacCallum Cancer Centre, 2014)
Assay: 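Genes whose loss kills vorinostat-resistant colon cancer cells under vorinostat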 (primary screen). Cells: human HCT116-VR colon cancer cells, selected for vorinostat resistance. Knock-down reagent: siRNA pool against human genes, 40 nM siRNA pool. Duration: vorinostat for 24 h, read-out about 72 h after transfection. Conditions: vorinostat at 2.5 µM final. Detection: 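Two measures, CellTiter-Fluor viability and luminescent caspase 3/7 activity, each as fold change against same-plate mock wells, mean of duplicates, then screen-wide robust z-score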. Scale: viability robust z-score: higher = more viable cells than screen typical; caspase robust z-score: higher = more caspase 3/7 activity than screen typical. Call rule: 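a knock-down is a hit when classed RV1 or RV2 for lowered viability, or CA1 or CA2 for caspase activation; those lethal without drug were dropped; hits were retested singly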.
The whole screen tested about 18,000 reagents; shown is a random part of them. Over the whole deposit, 450 (2.5%) are marked active. 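Single biological run; no consistent viability z cut-off exists, so the class columns, not z-scores, define the calls.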

KLF9 (KLF transcription factor 9) | viability hit class: no change; caspase hit class: no change; viability robust z-score: -0.62; caspase robust z-score: 0.45; Call: inactive
PTPRF (protein tyrosine phosphatase receptor type F) | viability hit class: no change; caspase hit class: no change; viability robust z-score: 0.46; caspase robust z-score: -0.25; Call: inactive
ELN (elastin) | viability hit class: no change; caspase hit class: no change; viability robust z-score: 0.54; caspase robust z-score: 0.15; Call: inactive
CLMN (calmin) | viability hit class: no change; caspase hit class: no change; viability robust z-score: 0.99; caspase robust z-score: 0.08; Call: inactive
SNX16 (sorting nexin 16) | viability hit class: no change; caspase hit class: no change; viability robust z-score: 1.44; caspase robust z-score: 0.16; Call: inactive
LPAR5 (lysophosphatidic acid receptor 5) | viability hit class: no change; caspase hit class: no change; viability robust z-score: -1.97; caspase robust z-score: -0.32; Call: inactive
RNF215 (ring finger protein 215) | viability hit class: no change; caspase hit class: CA2 (caspase activation); viability robust z-score: -4.79; caspase robust z-score: 6.2; Call: active
OR8K1 (olfactory receptor family 8 subfamily K member 1) | viability hit class: no change; caspase hit class: no change; viability robust z-score: 0.2; caspase robust z-score: 4.87; Call: inactive
ANAPC7 (anaphase promoting complex subunit 7) | viability hit class: no change; caspase hit class: no change; viability robust z-score: 2.11; caspase robust z-score: 0.64; Call: inactive
S100A10 (S100 calcium binding protein A10) | viability hit class: no change; caspase hit class: no change; viability robust z-score: -0.77; caspase robust z-score: -1.1; Call: inactive
PCBD1 (pterin-4 alpha-carbinolamine dehydratase 1) | viability hit class: no change; caspase hit class: no change; viability robust z-score: -0.71; caspase robust z-score: 1.25; Call: inactive
DNPEP (aspartyl aminopeptidase) | viability hit class: no change; caspase hit class: no change; viability robust z-score: -0.57; caspase robust z-score: 0.33; Call: inactive
ZDHHC6 (zDHHC palmitoyltransferase 6) | viability hit class: no change; caspase hit class: no change; viability robust z-score: -0.72; caspase robust z-score: 2.19; Call: inactive
CIAPIN1 (cytokine induced apoptosis inhibitor 1) | viability hit class: no change; caspase hit class: no change; viability robust z-score: -0.32; caspase robust z-score: 0.36; Call: inactive
PPP1R8 (protein phosphatase 1 regulatory subunit 8) | viability hit class: no change; caspase hit class: no change; viability robust z-score: 0.02; caspase robust z-score: 1.29; Call: inactive
INS-IGF2 (INS-IGF2 readthrough) | viability hit class: no change; caspase hit class: no change; viability robust z-score: 1.05; caspase robust z-score: -0.26; Call: inactive
TCP10L (t-complex 10 like) | viability hit class: no change; caspase hit class: no change; viability robust z-score: -0.54; caspase robust z-score: -0.97; Call: inactive
MT1G (metallothionein 1G) | viability hit class: no change; caspase hit class: no change; viability robust z-score: 0.01; caspase robust z-score: -1.08; Call: inactive
CLDN2 (claudin 2) | viability hit class: no change; caspase hit class: no change; viability robust z-score: -0.44; caspase robust z-score: 0.46; Call: inactive
PRAM1 (PML-RARA regulated adaptor molecule 1) | viability hit class: no change; caspase hit class: no change; viability robust z-score: -1.5; caspase robust z-score: 0.46; Call: inactive
ERO1B (endoplasmic reticulum oxidoreductase 1 beta) | viability hit class: no change; caspase hit class: no change; viability robust z-score: 1.36; caspase robust z-score: -0.5; Call: inactive

Part of the list above, showing only “caspase hit class”.
RNF215 (ring finger protein 215): CA2 (caspase activation)
OR8K1 (olfactory receptor family 8 subfamily K member 1): no change
ANAPC7 (anaphase promoting complex subunit 7): no change
